Experimental data reported in article PMC9682543.
Results are given in words; binding and its absence hold for the method and conditions named. In cells and extracts the contact can be indirect. Binding calls can cover weak binding; strength is not graded here.

Molecular target: T1, serpinE2 (serine (or cysteine) peptidase inhibitor, clade E, member 2) (mouse (endogenous in neonatal mouse cardiac fibroblasts)) (UniProt Q07235)
T1 sequence: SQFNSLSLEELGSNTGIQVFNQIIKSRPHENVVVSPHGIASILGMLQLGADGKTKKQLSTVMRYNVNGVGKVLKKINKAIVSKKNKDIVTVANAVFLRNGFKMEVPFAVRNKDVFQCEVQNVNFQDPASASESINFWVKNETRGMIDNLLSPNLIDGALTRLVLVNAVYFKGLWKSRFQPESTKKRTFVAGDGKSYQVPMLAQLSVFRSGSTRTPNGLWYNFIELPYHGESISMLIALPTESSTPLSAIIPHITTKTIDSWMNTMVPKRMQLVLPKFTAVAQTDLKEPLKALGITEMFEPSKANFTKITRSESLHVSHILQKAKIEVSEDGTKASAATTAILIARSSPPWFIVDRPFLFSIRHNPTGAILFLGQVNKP
Assay: co-IP; cardiac fibroblasts lysed in IP lysis buffer; complex captured with anti-serpinE2 antibody and Protein A/G PLUS-Agarose, washed with PBS; uPAR and LRP1 detected by immunoblotting; IgG as negative control

- binding: binds
Substance: low-density lipoprotein receptor-related protein 1 (LRP1)
